Results reported in PMC11932694.
No constants are given. Whether binding was seen depends on the method and setting. Binding seen in cells or lysates may run through a third protein. Some results given as binding are weak or reduced against the parent protein; the word gives no strength. For some of these results: Sequences can lack the tags named with a protein.

By UniProt entry, the sequences of proteins in these tests, tags left out.
UniProt Q7Z434: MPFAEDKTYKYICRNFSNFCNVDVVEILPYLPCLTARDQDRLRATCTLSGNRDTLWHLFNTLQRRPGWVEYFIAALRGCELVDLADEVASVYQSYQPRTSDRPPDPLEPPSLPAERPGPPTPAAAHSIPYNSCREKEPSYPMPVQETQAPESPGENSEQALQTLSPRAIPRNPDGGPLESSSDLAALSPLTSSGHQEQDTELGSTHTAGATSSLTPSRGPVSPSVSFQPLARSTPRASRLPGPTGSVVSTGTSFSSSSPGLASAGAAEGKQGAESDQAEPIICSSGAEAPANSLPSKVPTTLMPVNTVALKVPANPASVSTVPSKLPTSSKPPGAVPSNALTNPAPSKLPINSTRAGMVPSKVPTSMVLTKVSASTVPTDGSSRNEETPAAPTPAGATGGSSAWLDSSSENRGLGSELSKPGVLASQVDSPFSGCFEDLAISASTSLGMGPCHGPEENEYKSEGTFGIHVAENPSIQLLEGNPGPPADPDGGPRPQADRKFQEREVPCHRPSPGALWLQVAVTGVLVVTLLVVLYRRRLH
UniProt Q14694: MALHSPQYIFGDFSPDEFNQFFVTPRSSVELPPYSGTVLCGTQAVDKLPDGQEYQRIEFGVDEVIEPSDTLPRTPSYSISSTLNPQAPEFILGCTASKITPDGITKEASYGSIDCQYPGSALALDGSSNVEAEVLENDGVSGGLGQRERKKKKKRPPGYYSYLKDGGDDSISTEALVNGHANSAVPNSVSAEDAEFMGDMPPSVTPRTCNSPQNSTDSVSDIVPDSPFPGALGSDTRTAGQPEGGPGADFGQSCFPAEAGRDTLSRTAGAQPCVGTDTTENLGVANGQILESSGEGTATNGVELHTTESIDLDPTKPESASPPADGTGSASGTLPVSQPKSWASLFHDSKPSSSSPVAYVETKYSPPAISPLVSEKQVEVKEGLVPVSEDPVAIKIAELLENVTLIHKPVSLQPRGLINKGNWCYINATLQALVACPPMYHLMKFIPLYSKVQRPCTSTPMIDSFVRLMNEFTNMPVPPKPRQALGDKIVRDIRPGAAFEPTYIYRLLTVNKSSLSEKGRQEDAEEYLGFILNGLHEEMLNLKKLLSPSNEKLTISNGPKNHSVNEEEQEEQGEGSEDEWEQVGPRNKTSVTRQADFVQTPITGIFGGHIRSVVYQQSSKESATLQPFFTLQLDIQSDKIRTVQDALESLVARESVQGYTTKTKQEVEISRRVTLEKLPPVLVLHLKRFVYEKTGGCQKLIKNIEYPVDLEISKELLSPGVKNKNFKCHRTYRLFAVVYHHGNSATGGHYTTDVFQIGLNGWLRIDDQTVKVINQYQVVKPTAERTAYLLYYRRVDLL

Assays:
Flag-MAVS = Flag-MAVS (UniProt Q7Z434); assay: co-IP; HEK293T cells co-transfected with a Flag-tagged protein and GFP-tagged ORMDL3 (whole or truncated); lysates immunoprecipitated with anti-Flag antibody and protein A/G beads, blots with anti-GFP and anti-Flag; in Figure 5B with or without poly(I:C) co-transfection
Flag-USP10 [1] = target: Flag-USP10 (UniProt Q14694); assay: co-IP; HEK293T cells transfected with RIG-I-Myc and EV or Flag-USP10; lysates immunoprecipitated with anti-Flag antibody, blots with anti-Flag and anti-Myc
Flag-USP10 [2] = target: Flag-USP10 (UniProt Q14694); assay: co-IP; HEK293T cells transfected with Flag-USP10 and RIG-I-Myc, with or without ORMDL3 co-transfection; lysates immunoprecipitated with anti-Flag antibody, blots with anti-Flag and anti-Myc

Binder	binding (Flag-MAVS)	binding (Flag-USP10 [1])	binding (Flag-USP10 [2])
VSVPVVWTLTNLIHNMGMYIFLHTVKGTPFETPDQGKARL (domain or fragment, UniProt Q8N138 43-82) [ORMDL3 (43–82aa)]	binds	–	–
LTHWEQMDYGVQFTASRKFLTITPIVLYFLTSFYTK (domain or fragment, UniProt Q8N138 83-118) [ORMDL3 (83–118aa)]	binds	–	–
YDQIHFVLNTVSLMSVLIPKLPQLHGVRIFGINKY (domain or fragment, UniProt Q8N138 119-153) [ORMDL3 (119–153aa)]	binds	–	–
MNVGTAHSEVNPNTRVMNSRGIWLSYVLAIGLLHIVLLSIPF (domain or fragment, UniProt Q8N138 1-42) [ORMDL3 (1–42aa)]	binds	–	–

Now from value to binder:

binding (Flag-MAVS)	binding (Flag-USP10 [1])	binding (Flag-USP10 [2])	Binder
–	binds	binds	RIG-I-Myc (protein, UniProt O95786 1-925) MTTEQRRSLQAFQDYIRKTLDPTYILSYMAPWFREEEVQYIQAEKNNKGPMEAATLFLKFLLELQEEGWFRGFLDALDHAGYSGLYEAIESWDFKKIEKLEEYRLLLKRLQPEFKTRIIPTDIISDLSECLINQECEEILQICSTKGMMAGAEKLVECLLRSDKENWPKTLKLALEKERNKFSELWIVEKGIKDVETEDLEDKMETSDIQIFYQEDPECQNLSENSCPPSEVSDTNLYSPFKPRNYQLELALPAMKGKNTIICAPTGCGKTFVSLLICEHHLKKFPQGQKGKVVFFANQIPVYEQQKSVFSKYFERHGYRVTGISGATAENVPVEQIVENNDIIILTPQILVNNLKKGTIPSLSIFTLMIFDECHNTSKQHPYNMIMFNYLDQKLGGSSGPLPQVIGLTASVGVGDAKNTDEALDYICKLCASLDASVIATVKHNLEELEQVVYKPQKFFRKVESRISDKFKYIIAQLMRDTESLAKRICKDLENLSQIQNREFGTQKYEQWIVTVQKACMVFQMPDKDEESRICKALFLYTSHLRKYNDALIISEHARMKDALDYLKDFFSNVRAAGFDEIEQDLTQRFEEKLQELESVSRDPSNENPKLEDLCFILQEEYHLNPETITILFVKTRALVDALKNWIEGNPKLSFLKPGILTGRGKTNQNTGMTLPAQKCILDAFKASGDHNILIATSVADEGIDIAQCNLVILYEYVGNVIKMIQTRGRGRARGSKCFLLTSNAGVIEKEQINMYKEKMMNDSILRLQTWDEAVFREKILHIQTHEKFIRDSQEKPKPVPDKENKKLLCRKCKALACYTADVRVIEECHYTVLGDAFKECFVSRPHPKPKQFSSFEKRAKIFCARQNCSHDWGIHVKYKTFEIPVIKIESFVVEDIATGVQTLYSKWKDFHFEKIPFDPAEMSK
–	–	binds	ORMDL3 (co-transfected in Figure 6A; tag not named) (protein, UniProt Q8N138 1-153) MNVGTAHSEVNPNTRVMNSRGIWLSYVLAIGLLHIVLLSIPFVSVPVVWTLTNLIHNMGMYIFLHTVKGTPFETPDQGKARLLTHWEQMDYGVQFTASRKFLTITPIVLYFLTSFYTKYDQIHFVLNTVSLMSVLIPKLPQLHGVRIFGINKY
